# Experimental data reported in the supplement of paper PMC12067093, “Discovery and optimisation of a covalent ligand for TRIM25 and its application to targeted protein ubiquitination” (Chemical Science, 2025).
# Sequences of proteins named here, by UniProt entry; tags and fusion partners are left off. A change or cut given only in a name is not applied to a line headed by its entry.
# UniProt Q96JC1: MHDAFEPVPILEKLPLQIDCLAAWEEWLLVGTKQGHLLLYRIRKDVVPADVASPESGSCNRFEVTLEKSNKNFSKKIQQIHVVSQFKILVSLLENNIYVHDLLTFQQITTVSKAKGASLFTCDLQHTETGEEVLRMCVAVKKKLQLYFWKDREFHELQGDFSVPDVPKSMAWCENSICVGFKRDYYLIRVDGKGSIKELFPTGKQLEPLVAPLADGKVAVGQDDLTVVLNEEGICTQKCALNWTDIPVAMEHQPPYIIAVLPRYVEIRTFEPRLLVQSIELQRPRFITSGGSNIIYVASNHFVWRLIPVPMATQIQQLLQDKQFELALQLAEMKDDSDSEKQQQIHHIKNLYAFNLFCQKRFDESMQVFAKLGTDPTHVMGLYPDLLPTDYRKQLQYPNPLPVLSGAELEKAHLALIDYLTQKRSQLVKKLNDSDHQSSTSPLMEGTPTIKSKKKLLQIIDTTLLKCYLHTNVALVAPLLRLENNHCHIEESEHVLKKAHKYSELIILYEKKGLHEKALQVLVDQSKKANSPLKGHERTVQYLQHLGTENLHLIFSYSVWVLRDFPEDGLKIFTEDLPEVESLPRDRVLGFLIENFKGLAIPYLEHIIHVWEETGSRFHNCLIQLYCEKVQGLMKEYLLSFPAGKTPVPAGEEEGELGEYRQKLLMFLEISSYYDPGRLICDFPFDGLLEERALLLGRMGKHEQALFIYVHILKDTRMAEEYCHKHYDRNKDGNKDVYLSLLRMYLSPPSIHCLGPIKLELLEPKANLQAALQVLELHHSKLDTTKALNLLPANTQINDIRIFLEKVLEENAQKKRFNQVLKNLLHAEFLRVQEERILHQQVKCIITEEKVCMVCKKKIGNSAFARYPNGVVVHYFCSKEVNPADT
# UniProt P18206: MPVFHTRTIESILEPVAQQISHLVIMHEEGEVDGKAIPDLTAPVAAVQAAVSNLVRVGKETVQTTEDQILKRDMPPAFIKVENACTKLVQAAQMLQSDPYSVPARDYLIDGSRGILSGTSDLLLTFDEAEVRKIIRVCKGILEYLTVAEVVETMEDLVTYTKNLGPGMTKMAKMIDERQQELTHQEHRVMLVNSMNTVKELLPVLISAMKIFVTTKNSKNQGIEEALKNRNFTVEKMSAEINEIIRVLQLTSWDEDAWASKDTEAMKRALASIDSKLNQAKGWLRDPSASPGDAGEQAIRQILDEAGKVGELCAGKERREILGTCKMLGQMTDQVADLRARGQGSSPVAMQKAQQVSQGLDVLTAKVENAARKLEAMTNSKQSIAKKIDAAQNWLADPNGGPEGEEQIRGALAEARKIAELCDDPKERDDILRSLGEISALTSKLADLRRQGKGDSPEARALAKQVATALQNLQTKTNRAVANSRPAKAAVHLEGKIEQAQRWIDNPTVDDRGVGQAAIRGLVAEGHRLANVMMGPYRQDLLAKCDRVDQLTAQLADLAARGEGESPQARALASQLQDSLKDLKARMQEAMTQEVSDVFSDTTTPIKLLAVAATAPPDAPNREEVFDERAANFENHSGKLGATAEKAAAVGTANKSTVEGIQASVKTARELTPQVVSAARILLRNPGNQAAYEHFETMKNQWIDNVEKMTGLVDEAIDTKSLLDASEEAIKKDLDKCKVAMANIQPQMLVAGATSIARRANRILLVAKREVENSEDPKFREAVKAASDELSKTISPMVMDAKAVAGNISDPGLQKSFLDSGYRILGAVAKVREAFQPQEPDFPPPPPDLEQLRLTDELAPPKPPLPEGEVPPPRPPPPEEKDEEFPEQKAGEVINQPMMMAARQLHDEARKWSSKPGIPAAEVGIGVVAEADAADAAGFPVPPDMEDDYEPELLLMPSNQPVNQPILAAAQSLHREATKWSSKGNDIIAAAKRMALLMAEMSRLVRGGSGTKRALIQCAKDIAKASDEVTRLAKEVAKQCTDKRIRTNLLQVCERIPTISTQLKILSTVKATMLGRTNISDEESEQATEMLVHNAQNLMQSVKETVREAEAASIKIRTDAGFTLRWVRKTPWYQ
# UniProt Q7Z7G8: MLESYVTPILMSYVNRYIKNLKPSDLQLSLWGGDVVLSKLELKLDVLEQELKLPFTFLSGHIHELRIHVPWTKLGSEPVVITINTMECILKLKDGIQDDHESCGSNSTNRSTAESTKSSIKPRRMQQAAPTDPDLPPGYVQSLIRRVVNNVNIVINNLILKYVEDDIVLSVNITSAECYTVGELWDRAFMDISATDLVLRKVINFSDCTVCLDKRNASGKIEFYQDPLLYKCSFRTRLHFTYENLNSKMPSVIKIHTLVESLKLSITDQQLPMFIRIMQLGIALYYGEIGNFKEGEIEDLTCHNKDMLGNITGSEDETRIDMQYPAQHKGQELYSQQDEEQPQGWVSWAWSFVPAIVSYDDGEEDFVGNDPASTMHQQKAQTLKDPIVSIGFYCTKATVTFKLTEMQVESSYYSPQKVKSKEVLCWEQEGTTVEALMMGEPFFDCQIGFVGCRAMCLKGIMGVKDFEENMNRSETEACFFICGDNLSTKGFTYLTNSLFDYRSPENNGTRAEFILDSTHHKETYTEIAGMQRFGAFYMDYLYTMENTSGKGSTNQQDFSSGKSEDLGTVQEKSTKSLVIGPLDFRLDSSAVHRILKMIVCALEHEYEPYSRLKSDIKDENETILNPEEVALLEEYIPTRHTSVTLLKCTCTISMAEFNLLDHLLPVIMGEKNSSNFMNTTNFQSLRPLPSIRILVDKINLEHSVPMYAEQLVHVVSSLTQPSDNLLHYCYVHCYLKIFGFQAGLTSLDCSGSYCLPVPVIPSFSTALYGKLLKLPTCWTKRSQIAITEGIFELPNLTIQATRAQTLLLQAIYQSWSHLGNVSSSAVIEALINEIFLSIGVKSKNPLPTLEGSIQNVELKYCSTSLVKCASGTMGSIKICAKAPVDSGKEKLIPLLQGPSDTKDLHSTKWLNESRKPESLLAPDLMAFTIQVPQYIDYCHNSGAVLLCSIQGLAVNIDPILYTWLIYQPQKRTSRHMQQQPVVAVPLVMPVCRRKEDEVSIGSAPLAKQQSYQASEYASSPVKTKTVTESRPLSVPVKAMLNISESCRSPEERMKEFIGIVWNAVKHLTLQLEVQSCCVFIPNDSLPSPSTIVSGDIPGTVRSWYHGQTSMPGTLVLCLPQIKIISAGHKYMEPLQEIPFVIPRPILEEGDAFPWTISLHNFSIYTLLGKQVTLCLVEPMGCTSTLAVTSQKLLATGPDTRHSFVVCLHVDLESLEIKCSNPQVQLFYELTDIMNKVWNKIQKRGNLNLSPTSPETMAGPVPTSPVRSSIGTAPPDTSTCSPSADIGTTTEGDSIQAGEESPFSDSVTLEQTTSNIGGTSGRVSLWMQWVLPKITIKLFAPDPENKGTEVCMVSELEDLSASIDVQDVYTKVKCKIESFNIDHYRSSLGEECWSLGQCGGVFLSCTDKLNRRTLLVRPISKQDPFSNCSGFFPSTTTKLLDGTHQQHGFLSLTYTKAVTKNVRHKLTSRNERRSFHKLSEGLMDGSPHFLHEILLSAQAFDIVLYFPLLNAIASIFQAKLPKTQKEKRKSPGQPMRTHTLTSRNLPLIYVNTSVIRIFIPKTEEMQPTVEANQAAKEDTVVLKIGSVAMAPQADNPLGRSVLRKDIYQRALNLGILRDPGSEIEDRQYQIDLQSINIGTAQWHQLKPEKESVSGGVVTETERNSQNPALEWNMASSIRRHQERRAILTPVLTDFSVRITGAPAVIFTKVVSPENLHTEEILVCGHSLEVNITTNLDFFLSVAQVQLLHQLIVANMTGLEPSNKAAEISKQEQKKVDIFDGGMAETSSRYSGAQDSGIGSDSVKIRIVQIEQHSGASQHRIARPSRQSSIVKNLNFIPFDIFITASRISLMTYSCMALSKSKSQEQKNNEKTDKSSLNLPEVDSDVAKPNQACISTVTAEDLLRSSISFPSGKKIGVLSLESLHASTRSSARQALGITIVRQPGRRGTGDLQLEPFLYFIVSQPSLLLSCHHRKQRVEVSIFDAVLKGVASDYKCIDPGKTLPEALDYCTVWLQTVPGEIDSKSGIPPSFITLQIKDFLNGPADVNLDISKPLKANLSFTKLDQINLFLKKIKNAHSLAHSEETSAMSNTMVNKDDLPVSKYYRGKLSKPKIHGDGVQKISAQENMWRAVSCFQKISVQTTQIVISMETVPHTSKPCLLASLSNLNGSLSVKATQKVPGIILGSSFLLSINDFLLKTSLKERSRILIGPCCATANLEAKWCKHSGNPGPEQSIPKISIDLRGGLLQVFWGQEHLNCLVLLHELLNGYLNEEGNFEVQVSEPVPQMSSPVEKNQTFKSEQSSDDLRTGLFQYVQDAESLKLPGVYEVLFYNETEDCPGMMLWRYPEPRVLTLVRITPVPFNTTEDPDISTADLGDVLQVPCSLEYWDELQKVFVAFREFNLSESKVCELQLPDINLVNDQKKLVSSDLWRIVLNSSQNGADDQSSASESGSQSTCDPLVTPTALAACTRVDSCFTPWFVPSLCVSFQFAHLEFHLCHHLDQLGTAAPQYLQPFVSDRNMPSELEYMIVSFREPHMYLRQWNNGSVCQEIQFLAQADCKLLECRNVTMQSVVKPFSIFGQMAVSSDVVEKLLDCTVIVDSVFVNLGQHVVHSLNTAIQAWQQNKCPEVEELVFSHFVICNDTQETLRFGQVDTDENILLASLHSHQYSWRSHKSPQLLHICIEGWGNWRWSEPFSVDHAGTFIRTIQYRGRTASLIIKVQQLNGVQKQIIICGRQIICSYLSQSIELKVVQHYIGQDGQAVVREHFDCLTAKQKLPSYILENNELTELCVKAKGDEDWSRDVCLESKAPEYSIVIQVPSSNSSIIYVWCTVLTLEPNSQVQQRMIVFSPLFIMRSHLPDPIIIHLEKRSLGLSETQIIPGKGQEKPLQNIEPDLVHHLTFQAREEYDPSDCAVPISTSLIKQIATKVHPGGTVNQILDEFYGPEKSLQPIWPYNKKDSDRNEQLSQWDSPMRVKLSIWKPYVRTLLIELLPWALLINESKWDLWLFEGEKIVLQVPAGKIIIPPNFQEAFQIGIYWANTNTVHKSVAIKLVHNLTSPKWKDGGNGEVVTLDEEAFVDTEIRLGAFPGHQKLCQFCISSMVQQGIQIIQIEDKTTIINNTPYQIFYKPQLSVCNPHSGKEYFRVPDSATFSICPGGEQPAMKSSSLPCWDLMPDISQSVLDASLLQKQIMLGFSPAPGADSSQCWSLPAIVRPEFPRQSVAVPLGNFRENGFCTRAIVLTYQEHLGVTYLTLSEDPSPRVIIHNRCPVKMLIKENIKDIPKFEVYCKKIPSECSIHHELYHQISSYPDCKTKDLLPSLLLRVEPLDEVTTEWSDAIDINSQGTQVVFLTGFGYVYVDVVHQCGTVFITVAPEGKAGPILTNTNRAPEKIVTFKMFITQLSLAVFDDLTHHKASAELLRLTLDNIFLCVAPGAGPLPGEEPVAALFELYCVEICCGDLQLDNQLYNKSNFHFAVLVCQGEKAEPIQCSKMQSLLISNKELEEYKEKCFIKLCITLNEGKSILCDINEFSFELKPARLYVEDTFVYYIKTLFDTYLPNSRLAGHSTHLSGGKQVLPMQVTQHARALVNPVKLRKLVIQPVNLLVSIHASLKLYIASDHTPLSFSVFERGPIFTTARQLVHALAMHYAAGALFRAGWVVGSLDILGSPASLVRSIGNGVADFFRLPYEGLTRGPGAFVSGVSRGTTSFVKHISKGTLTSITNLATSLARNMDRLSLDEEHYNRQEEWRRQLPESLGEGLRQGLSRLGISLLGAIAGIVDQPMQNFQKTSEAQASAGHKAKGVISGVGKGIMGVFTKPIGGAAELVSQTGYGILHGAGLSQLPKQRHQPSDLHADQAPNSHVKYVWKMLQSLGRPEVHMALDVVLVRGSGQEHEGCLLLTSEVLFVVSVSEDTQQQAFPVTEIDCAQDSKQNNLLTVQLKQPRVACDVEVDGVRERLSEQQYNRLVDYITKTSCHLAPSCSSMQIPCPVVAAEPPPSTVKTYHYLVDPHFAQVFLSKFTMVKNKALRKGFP
# UniProt P51809, whole entry, looked up: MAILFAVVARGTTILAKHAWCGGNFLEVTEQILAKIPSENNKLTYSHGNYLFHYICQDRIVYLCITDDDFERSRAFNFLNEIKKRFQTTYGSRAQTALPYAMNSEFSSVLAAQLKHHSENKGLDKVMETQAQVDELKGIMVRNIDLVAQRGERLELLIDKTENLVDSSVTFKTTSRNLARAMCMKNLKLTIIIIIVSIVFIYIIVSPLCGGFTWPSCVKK
# UniProt Q9UK41: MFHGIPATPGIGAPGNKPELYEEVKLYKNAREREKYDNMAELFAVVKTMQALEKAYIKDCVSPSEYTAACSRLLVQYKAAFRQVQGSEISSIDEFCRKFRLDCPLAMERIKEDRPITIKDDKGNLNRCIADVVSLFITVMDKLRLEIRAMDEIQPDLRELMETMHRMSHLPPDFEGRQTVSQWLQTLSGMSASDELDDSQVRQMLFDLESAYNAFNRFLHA
# The list shows a part of the results.
# Compound: Cc1cc(ccc1-c1ccccc1)C(=O)N1CCCN(CC1)C(=O)CCl [compound 10]
# Assay: probe-labelled cysteine peptide fold change vs DMSO (competition) (log2 fold change); higher = less target engagement (more negative = stronger competition)
# Details: THP-1, incubation time: 4 h
# 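Further: competitive profiling in live THP-1 cells: cysteine peptides tagged with an iodoacetamide desthiobiotin (IA-DTB) probe, intensity after compound treatment relative to DMSO-treated cells.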
Target,probe-labelled cysteine peptide fold change (10 µM),probe-labelled cysteine peptide fold change (50 µM)
VPS13C_Q709C8_2276+2289_GIEHSLIEENCGVVVESIQVTLECGLGHR (UniProt Q709C8),-0.0638,0.163
UVRAG_Q9P2Y5_71_NGHQLLDTYFTLHLCSTEK (UniProt Q9P2Y5),0.0232,0.0171
VIRMA_Q69YN4_1008_CTLTLLK (UniProt Q69YN4),0.0155,0.295
VPS29_Q9UBQ0_15_CNSLPAK (UniProt Q9UBQ0),-0.00536,0.0756
VPS33B_Q9H267_82_VENKPALSSNEQLCFLVRPR (UniProt Q9H267),0.0977,0.0279
VPS11_Q9H270_890_CSNDSFSVIADYFGR (UniProt Q9H270),0.0291,-0.241
VPS11_Q9H270_709_QVISVCER (UniProt Q9H270),0.147,-0.00341
VPS39_Q96JC1_358_NLYAFNLFCQK (UniProt Q96JC1),0.255,0.239
VPS4A_Q9UN37_403_LLEPVVCMSDMLR (UniProt Q9UN37),0.055,-0.16
VCL_P18206_545_CDRVDQLTAQLADLAAR (UniProt P18206),0.181,0.164
VARS2_Q5ST30_549_QLWWGHQIPAYLVVEDHAQGEEDCWVVGR (UniProt Q5ST30),0.149,0.141
VPS13B_Q7Z7G8_1218_CSNPQVQLFYELTDIMNK (UniProt Q7Z7G8),-0.169,0.299
VPS13A_Q96RL7_1608_ACPFLPVK (UniProt Q96RL7),-0.178,-0.0723
UTRN_P46939_1218_VPSGGQELTSELNVVLENYQLLCNR (UniProt P46939),0.0375,0.279
USP9Y_O00507_148_CIINNTHR (UniProt O00507),0.027,0.385
WAPL_Q7Z5K2_344_KGGVSCGTSFR (UniProt Q7Z5K2),-0.117,-0.401
UTP20_O75691_295_EHFGTFFECLQESLLDLHTK (UniProt O75691),0.0442,0.268
VCPIP1_Q96JH7_344_DGHLNKPICIAWSSSGR (UniProt Q96JH7),-0.152,-0.163

Target,probe-labelled cysteine peptide fold change (10 µM),probe-labelled cysteine peptide fold change (50 µM)
VAMP7_P51809_64_IVYLCITDDDFER (UniProt P51809),0.243,0.625
VPS13B_Q7Z7G8_1993_CIDPGK (UniProt Q7Z7G8),-0.0685,-0.000933
VPS29_Q9UBQ0_36_IQHILCTGNLCTK (UniProt Q9UBQ0),-0.127,-0.307
VCL_P18206_325_EILGTCK (UniProt P18206),0.207,0.163
VPS28_Q9UK41_103_FRLDCPLAMER (UniProt Q9UK41),-0.0279,-0.0784
VPS13C_Q709C8_2906_WNYIASSECLPFWPESLSGK (UniProt Q709C8),-0.0311,0.127
VPS13B_Q7Z7G8_868_CASGTMGSIK (UniProt Q7Z7G8),-0.0934,-0.0648
VPS39_Q96JC1_235_VAVGQDDLTVVLNEEGICTQK (UniProt Q96JC1),-0.217,-0.31
VPS16_Q9H269_36_KYELYSMDWDLKEELRDCLVAAAPYGGPIALLR (UniProt Q9H269),0.0814,-0.216
USP9Y_O00507_1568_NAGATCYMNSVIQQLYMIPSIR (UniProt O00507),0.116,0.0781
UTP20_O75691_2388_QLAALICGLFVESEGVDFEKR (UniProt O75691),0.315,-0.0875
VPS35_Q96QK1_156_NYLLQCTR (UniProt Q96QK1),-0.0574,-0.116
VPS11_Q9H270_231_VELDTHGCGLR (UniProt Q9H270),0.123,0.07
VPS33A_Q96AX1_416_LVCLQSVCNSGLK (UniProt Q96AX1),0.187,0.189
VTA1_Q9NP79_155_ATYIHNCLK (UniProt Q9NP79),0.059,0.0628
VARS_P26640_682_CGEMAQAASAAVTR (UniProt P26640),-0.0336,-0.0251
WARS_P23381_225_DIIACGFDINK (UniProt P23381),0.195,0.132
VPS35_Q96QK1_253_QIVLTGILEQVVNCR (UniProt Q96QK1),0.0589,0.00614

# Whole records from above. Values in the order: probe-labelled cysteine peptide fold change (10 µM)	probe-labelled cysteine peptide fold change (50 µM)
# VPS11_Q9H270_231_VELDTHGCGLR (UniProt Q9H270) is listed with 0.123	0.07
# VARS_P26640_682_CGEMAQAASAAVTR (UniProt P26640) is listed with -0.0336	-0.0251
